Results: publication PMC8299398
Where two headings read alike, the source gives them in different places. Results are given in words; binding and its absence hold for the method and conditions named. Binding seen in cells or lysates may run through a third protein. Some binding calls cover weakened binding; strength is not graded here. For some of these results: Sequences can lack the tags named with a protein.

The chains behind the UniProt entries cited, without tags or fusion partners.
UniProt P49841: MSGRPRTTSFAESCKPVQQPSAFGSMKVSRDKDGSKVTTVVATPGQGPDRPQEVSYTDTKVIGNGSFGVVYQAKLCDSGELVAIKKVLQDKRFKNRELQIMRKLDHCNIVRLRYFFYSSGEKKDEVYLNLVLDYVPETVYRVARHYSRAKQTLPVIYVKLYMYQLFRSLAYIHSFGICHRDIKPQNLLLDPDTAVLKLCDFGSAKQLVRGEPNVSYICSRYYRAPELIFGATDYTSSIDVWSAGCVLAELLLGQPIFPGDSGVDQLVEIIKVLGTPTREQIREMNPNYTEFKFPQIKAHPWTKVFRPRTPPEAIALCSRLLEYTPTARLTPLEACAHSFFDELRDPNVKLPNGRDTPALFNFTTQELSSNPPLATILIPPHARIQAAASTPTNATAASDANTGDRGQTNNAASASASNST
UniProt Q9WTX6: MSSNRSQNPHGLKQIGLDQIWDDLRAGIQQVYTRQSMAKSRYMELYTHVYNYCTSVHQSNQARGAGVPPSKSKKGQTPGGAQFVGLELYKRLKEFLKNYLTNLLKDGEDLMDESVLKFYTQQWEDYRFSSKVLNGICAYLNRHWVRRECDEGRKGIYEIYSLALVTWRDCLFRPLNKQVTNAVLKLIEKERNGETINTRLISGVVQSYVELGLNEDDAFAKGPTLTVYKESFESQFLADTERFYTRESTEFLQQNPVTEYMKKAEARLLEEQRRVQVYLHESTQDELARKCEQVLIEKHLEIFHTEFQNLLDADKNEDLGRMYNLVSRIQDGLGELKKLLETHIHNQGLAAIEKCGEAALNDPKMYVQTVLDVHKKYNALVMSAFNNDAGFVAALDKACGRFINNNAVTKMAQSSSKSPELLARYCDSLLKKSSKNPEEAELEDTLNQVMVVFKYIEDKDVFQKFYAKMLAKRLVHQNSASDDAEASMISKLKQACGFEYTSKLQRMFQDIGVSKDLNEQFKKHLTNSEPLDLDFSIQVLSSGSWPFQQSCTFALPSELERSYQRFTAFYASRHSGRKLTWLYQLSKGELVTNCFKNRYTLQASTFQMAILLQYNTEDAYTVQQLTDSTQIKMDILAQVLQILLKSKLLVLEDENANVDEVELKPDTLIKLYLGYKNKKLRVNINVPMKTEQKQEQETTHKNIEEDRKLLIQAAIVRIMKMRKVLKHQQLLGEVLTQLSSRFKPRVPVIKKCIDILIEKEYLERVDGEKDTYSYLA

Experiments:
FLAG-FBXL21 [1] = biological target: T1, FLAG-FBXL21 (UniProt Q8BFZ4); experiment: co-IP; 293T cells co-transfected with FLAG- and HA-tagged constructs; immunoprecipitation with anti-FLAG antibody (M2 agarose beads)
T1 sequence: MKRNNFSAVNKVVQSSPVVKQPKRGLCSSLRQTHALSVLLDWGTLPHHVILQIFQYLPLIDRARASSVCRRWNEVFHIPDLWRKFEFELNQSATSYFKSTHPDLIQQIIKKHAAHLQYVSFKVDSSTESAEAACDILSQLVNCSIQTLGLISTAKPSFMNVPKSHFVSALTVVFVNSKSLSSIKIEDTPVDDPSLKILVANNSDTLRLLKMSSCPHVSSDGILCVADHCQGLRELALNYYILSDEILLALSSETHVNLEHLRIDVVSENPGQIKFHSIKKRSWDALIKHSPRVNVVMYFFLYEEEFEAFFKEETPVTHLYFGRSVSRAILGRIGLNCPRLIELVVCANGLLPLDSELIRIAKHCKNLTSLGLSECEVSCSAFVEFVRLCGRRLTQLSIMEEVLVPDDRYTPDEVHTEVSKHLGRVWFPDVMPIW

FLAG-TCAP = biological target: T2, FLAG-TCAP (UniProt O70548); experiment: as above
T2 sequence: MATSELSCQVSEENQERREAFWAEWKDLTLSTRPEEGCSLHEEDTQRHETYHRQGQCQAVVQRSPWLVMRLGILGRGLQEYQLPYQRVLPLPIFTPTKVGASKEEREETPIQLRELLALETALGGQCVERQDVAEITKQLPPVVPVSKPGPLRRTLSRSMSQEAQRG

[2] = biological target: T3, VenN-FBXL21 (Venus N terminus fused with Fbxl21) (UniProt Q8BFZ4); experiment: split reporter; BiFC with Venus N- and C-terminal fragments in transfected 293T cells, fixed 2 days after transfection, Venus emission 528 nm; with scramble shRNA or GSK-3β shRNA co-transfection
T3 sequence: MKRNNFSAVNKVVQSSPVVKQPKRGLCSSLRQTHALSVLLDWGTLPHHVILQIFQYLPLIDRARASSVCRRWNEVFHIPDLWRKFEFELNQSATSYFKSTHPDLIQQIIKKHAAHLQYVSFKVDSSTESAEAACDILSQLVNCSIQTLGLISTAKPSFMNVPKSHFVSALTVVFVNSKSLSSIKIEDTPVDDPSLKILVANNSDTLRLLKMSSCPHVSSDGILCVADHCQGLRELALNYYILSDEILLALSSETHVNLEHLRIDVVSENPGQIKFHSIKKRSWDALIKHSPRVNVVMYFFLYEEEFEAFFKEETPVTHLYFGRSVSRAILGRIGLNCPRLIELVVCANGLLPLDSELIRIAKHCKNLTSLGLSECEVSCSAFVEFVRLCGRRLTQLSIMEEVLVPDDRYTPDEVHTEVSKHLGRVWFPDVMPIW

VenN-FBXL21T33A = biological target: T4, VenN-FBXL21T33A (UniProt Q8BFZ4); experiment: as above
T4 sequence: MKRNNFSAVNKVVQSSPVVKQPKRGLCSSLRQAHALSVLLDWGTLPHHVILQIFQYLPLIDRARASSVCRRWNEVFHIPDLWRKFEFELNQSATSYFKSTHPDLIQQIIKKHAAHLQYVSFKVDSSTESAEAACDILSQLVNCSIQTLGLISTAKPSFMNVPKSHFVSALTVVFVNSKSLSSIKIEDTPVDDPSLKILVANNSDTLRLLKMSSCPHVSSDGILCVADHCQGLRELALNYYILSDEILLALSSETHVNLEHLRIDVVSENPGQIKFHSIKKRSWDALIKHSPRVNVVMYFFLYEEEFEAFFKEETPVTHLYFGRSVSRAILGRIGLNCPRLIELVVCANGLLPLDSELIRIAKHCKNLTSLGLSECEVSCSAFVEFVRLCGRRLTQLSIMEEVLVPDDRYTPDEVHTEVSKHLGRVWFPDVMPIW

FLAG-FBXL21 [3] = biological target: T1, FLAG-FBXL21; experiment: co-IP; 293T cells co-transfected with FLAG- and HA-tagged constructs; immunoprecipitation with anti-FLAG antibody (M2 agarose beads); remark: listed apart in the source
[4] = biological target: T5, FBXL21 (endogenous, mouse gastrocnemius muscle) (mouse (endogenous in gastrocnemius muscle)) (UniProt Q8BFZ4); experiment: co-IP; gastrocnemius muscles of wild-type C57BL/6 mice collected every 4 h over one 12 h:12 h light:dark cycle
T5 sequence: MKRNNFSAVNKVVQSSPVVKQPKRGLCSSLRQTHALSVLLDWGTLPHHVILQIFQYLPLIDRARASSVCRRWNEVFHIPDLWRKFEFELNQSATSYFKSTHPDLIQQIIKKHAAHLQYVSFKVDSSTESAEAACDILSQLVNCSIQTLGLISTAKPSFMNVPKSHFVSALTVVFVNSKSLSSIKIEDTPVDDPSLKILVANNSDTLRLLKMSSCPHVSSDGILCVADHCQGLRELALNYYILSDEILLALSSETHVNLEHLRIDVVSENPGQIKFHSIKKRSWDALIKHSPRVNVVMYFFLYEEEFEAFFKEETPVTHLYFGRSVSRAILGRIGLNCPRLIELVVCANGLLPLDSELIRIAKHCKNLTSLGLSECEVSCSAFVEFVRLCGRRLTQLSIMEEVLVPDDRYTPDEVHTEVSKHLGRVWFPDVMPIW

HA-GSK-3β (from UniProt P49841 1-420) (enzyme)
binding (FLAG-FBXL21 [1]): binds | binding (FLAG-TCAP): binds

VenC-Cullin1 (from UniProt Q9WTX6 1-776)
binding [2]: binds | binding (VenN-FBXL21T33A): binds

B1: VenC-TCAP (Venus C terminus fused with TCAP) (protein, UniProt O70548 1-167)
chain: MATSELSCQVSEENQERREAFWAEWKDLTLSTRPEEGCSLHEEDTQRHETYHRQGQCQAVVQRSPWLVMRLGILGRGLQEYQLPYQRVLPLPIFTPTKVGASKEEREETPIQLRELLALETALGGQCVERQDVAEITKQLPPVVPVSKPGPLRRTLSRSMSQEAQRG
binding [2]: binds

B2: hemagglutinin (HA)-TCAP (protein, UniProt O70548 1-167)
chain: MATSELSCQVSEENQERREAFWAEWKDLTLSTRPEEGCSLHEEDTQRHETYHRQGQCQAVVQRSPWLVMRLGILGRGLQEYQLPYQRVLPLPIFTPTKVGASKEEREETPIQLRELLALETALGGQCVERQDVAEITKQLPPVVPVSKPGPLRRTLSRSMSQEAQRG
binding (FLAG-FBXL21 [3]): binds

B3: TCAP (endogenous, mouse gastrocnemius muscle) (protein, UniProt O70548 1-167)
chain: MATSELSCQVSEENQERREAFWAEWKDLTLSTRPEEGCSLHEEDTQRHETYHRQGQCQAVVQRSPWLVMRLGILGRGLQEYQLPYQRVLPLPIFTPTKVGASKEEREETPIQLRELLALETALGGQCVERQDVAEITKQLPPVVPVSKPGPLRRTLSRSMSQEAQRG
binding [4]: binds
